This is one part of the list.
Columns and labels:
Assay in all cases: log2 fold change, soluble protein after heating vs DMSO (PISA); higher = thermal stabilisation; K562 lysate, 10 uM; active = over 0.2 and 3.5 SD of the protein, either way, in both replicates (recomputed)
barasertib = compound: CCN(CCCOc1ccc2c(Nc3cc(CC(=O)Nc4cccc(F)c4)[nH]n3)ncnc2c1)CCOP(=O)(O)O [barasertib]
Procedure, shortened: (§1)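 Following dounce homogenisation of K562 pellets in PBS pH 7.4 with 1 mM MgCl2, crude extract at 1 mg/mL protein was incubated for 30 min with 10 μM compound. Aliquots were then heated for 3 min over 48°C-58°C and pooled, NP-40 was added to 0.5% at 4°C, and soluble protein was recovered as the supernatant at 21,000xg for 90 min. Channel-sum-equalised TMTpro 16plex LC-MS/MS quantified this protein. Each value, from duplicates, is a log-two fold change in thermal stability relative to solvent controls.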

Chains of the proteins cited; added tags and fusions are not shown. Lines headed by an entry give the natural chain unless they say otherwise; changes in a name come on top.
UniProt O94941: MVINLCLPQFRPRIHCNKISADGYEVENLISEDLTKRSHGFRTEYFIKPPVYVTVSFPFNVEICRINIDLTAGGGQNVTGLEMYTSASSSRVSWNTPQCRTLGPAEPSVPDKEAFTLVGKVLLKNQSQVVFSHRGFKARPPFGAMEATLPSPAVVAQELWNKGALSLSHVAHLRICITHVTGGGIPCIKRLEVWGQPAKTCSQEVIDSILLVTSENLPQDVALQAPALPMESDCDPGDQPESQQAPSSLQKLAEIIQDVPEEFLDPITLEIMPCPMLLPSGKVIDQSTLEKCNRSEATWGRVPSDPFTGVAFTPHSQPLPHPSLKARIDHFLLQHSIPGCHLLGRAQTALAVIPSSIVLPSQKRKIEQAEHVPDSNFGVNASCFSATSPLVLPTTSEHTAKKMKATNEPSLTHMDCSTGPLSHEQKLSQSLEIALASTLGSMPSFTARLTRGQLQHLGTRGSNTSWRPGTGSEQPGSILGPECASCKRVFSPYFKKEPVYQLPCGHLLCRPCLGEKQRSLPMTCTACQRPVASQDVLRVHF
UniProt Q9NY65, whole entry, looked up: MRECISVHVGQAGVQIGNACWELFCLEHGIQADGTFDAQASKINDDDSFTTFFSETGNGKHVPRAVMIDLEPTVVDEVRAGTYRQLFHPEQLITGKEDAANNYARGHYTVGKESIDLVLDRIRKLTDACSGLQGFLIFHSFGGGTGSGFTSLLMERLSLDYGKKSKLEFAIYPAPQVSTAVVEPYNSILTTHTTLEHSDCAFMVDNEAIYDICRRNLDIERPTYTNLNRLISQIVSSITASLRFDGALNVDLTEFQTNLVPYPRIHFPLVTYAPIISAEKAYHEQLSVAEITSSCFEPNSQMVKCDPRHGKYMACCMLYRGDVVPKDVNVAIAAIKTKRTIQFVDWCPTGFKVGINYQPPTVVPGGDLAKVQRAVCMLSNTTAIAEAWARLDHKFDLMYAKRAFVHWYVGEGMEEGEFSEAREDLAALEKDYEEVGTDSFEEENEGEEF
UniProt O75896: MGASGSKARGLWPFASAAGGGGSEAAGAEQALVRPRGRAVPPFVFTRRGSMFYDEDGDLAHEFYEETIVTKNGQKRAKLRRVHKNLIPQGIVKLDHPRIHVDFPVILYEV
UniProt Q6PKC3: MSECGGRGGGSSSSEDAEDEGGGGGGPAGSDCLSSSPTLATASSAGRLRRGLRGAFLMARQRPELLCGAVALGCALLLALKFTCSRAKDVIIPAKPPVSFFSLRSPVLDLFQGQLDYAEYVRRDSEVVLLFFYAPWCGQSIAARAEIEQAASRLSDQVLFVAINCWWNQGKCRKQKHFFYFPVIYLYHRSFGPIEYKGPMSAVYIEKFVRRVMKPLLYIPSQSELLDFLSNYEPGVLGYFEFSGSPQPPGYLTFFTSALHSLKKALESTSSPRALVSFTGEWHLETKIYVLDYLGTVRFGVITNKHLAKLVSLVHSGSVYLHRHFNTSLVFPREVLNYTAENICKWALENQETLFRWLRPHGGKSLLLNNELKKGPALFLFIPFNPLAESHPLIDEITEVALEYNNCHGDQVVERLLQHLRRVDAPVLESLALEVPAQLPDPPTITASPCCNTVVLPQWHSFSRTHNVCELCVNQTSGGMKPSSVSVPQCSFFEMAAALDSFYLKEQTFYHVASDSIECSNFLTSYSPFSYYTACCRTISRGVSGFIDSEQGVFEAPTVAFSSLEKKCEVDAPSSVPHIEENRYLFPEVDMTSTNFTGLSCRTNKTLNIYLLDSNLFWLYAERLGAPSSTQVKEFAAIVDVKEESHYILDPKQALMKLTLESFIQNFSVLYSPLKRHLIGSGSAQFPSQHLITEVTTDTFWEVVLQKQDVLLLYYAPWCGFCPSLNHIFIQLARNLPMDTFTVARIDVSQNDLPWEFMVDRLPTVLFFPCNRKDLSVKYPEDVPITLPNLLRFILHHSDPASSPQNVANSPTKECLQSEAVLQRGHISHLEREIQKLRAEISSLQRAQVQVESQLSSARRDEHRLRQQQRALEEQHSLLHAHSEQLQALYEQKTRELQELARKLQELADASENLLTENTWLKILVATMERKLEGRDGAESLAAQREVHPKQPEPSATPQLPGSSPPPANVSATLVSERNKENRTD
UniProt Q9NNW7, whole entry, looked up: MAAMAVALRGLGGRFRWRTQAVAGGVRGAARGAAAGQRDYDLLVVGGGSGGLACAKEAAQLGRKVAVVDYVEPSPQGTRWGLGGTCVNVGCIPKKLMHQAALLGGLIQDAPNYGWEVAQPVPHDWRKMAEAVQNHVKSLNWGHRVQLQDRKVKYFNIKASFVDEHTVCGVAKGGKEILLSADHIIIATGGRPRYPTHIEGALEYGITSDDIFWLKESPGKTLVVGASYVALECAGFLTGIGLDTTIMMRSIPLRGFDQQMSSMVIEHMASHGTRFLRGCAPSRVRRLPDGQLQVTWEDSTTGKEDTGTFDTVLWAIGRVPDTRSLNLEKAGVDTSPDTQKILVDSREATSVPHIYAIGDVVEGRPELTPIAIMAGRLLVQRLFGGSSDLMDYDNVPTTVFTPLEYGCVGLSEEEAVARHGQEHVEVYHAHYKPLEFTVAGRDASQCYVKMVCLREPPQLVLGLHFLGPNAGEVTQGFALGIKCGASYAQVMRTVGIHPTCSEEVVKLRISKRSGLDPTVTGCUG
UniProt Q14157: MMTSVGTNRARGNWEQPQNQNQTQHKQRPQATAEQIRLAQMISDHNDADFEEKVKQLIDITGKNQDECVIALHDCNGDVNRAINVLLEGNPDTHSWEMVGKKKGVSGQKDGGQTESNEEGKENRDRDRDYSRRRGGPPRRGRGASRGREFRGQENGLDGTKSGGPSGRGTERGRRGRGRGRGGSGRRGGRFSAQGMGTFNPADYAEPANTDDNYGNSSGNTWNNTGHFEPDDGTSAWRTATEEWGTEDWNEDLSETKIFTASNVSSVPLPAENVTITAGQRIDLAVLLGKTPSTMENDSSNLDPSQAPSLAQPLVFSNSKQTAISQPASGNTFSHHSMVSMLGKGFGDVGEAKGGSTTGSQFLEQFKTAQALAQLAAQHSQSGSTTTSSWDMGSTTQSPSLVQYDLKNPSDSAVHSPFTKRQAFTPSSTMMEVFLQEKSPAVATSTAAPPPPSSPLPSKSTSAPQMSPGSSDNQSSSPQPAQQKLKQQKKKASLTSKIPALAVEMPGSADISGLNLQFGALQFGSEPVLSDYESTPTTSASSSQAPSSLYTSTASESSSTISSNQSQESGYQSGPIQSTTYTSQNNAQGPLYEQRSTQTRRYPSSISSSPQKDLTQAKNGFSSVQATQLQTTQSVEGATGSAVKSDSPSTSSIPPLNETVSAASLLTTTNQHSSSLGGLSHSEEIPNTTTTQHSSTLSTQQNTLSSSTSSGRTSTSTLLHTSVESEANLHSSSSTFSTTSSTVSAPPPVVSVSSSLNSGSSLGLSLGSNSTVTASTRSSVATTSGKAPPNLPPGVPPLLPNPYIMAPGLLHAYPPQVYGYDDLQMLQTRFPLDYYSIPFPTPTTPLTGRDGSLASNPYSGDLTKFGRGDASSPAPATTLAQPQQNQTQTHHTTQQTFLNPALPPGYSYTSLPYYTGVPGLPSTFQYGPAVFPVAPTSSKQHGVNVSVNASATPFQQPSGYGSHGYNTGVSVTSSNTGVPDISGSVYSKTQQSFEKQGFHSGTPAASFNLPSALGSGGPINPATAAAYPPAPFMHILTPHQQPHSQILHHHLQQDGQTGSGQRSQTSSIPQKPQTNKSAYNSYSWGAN
UBE2L5, A0A1B0GUS4, UniProt A0A1B0GUS4, whole entry, looked up: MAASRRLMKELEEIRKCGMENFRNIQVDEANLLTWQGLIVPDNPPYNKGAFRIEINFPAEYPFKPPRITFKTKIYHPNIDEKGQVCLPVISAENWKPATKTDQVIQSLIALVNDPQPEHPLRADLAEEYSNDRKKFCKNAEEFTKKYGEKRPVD
UniProt O00124: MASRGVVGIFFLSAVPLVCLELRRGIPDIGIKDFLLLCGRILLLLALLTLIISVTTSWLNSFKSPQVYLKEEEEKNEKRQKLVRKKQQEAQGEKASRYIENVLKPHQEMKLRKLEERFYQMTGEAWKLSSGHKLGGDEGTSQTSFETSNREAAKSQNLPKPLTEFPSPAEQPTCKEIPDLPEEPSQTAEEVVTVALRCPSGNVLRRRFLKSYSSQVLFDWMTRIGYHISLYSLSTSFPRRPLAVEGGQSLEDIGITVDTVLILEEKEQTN
UniProt Q96RR1: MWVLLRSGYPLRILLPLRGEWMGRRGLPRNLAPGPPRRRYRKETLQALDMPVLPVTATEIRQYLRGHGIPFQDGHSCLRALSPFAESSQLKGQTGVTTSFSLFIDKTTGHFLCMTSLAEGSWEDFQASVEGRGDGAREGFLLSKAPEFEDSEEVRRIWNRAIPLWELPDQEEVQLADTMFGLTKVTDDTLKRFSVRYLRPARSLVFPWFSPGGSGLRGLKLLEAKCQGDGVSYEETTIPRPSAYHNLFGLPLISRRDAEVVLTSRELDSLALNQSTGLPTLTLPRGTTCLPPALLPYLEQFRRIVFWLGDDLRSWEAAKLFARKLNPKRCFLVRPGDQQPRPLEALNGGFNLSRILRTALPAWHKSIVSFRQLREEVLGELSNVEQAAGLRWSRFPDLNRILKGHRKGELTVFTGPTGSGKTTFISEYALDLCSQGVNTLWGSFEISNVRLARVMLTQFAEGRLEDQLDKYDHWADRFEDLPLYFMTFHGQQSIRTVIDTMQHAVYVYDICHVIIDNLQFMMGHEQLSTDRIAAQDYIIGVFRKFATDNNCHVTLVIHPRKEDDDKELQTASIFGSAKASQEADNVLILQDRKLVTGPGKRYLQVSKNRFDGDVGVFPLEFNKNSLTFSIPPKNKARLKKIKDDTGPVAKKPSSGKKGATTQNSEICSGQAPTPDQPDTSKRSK
UniProt Q96ET8: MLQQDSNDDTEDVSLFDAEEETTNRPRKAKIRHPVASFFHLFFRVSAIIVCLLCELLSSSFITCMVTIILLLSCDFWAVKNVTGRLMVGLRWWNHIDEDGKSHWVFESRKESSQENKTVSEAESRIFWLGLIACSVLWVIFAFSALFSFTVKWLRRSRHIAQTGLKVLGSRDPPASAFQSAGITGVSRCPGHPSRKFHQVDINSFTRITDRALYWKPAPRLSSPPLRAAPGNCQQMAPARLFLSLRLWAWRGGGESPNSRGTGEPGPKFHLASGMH
UniProt Q8N2K1: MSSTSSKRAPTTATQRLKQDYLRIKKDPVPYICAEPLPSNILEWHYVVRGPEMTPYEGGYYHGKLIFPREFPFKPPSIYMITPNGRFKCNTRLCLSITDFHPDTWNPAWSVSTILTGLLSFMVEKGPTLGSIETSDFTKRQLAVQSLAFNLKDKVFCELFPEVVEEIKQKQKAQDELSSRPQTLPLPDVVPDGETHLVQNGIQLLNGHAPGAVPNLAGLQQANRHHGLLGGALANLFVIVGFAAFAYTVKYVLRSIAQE
UniProt P41226: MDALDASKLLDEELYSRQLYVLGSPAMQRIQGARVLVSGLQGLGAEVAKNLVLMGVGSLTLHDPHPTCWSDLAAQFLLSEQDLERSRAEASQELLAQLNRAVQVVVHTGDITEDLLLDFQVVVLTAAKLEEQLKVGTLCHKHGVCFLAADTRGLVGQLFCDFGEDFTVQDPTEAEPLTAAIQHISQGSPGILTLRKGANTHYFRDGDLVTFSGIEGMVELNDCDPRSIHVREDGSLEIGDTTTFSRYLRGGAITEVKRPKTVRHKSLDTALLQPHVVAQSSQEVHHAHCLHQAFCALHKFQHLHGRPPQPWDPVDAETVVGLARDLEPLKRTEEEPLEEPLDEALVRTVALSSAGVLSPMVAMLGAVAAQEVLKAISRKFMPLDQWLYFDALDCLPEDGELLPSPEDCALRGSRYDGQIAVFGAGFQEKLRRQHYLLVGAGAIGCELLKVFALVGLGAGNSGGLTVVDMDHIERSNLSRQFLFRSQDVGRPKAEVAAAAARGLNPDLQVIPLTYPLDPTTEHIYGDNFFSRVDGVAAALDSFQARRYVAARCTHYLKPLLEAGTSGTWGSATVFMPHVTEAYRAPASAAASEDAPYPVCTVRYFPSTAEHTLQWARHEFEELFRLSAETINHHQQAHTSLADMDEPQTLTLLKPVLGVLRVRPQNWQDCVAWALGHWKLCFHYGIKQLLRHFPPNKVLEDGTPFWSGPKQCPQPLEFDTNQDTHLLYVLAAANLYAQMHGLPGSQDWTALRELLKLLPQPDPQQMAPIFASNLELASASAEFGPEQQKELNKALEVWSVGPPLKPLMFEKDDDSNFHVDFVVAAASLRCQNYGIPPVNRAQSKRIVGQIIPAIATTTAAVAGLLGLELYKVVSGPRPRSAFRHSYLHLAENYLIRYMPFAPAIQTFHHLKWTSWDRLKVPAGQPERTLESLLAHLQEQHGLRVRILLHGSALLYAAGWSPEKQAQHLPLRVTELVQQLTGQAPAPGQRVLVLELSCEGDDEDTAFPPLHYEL
UniProt O14530: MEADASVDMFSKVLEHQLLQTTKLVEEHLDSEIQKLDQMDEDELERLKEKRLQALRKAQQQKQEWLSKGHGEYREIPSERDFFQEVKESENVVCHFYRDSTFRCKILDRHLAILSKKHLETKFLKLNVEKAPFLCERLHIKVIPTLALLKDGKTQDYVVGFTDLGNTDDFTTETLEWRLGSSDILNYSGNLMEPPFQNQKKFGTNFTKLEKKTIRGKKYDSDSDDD

[1] = compound: CC[C@@H]1C(=O)N(C)c2cnc(Nc3ccc(C(=O)NC4CCN(C)CC4)cc3OC)nc2N1C1CCCC1
Procedure, shortened: as §1

[2] = compound: CCn1c(C(=O)N(C2CC2)C2CC2)cc2c3c(ncn3C)c(Nc3cc(C)n(C)n3)nc21
Procedure, shortened: as §1

[3] = compound: CCn1cc(-c2ccnc3[nH]c(-c4cccc(CN(C)C)c4)cc23)c(-c2ccc(NC(=O)N(C)C)cc2)n1
Procedure, shortened: as §1

[4] = compound: CN1CCC(CNc2ccc3ncc(-c4cccc(OC(F)(F)F)c4)n3n2)CC1
Procedure, shortened: as §1

[5] = compound: CCCS(=O)(=O)Nc1ccc(F)c(C(=O)c2c[nH]c3ncc(Cl)cc23)c1F
Procedure, shortened: as §1

volasertib = compound: CC[C@@H]1C(=O)N(C)c2cnc(Nc3ccc(C(=O)N[C@H]4CC[C@H](N5CCN(CC6CC6)CC5)CC4)cc3OC)nc2N1C(C)C [volasertib]
Procedure, shortened: as §1

vemurafenib = compound: CCCS(=O)(=O)Nc1ccc(F)c(C(=O)c2c[nH]c3ncc(-c4ccc(Cl)cc4)cc23)c1F [vemurafenib]
Procedure, shortened: as §1

saracatinib = compound: CN1CCN(CCOc2cc(OC3CCOCC3)c3c(Nc4c(Cl)ccc5c4OCO5)ncnc3c2)CC1 [saracatinib]
Procedure, shortened: as §1

sotrastaurin = compound: CN1CCN(c2nc(C3=C(c4c[nH]c5ccccc45)C(=O)NC3=O)c3ccccc3n2)CC1 [sotrastaurin]
Procedure, shortened: as §1

Measured: log2 fold change

TUFT1 (UniProt Q9NNX1)
inactive: barasertib -0.102 | [1] 0.284 | [2] 0.023 | [3] -0.018 | [4] 0.117

UBA2 (UniProt K7ESK7)
inactive: [5] -0.041 | volasertib 0.046

TUBA4A (UniProt C9JQ00)
inactive: barasertib 0.267 | [3] 0 | [4] -0.045

U2SURP isoform 2 (UniProt O15042)
inactive: vemurafenib -0.085 | [1] 0.155 | saracatinib 0.018

UBOX5 (UniProt O94941)
inactive: [2] -0.063 | [3] 0.06 | [4] 0.074 | saracatinib 0.085

TUBA8 (UniProt Q9NY65)
inactive: barasertib -0.051 | [1] -0.051 | [3] -0.359 | [4] 0.132 | saracatinib 0.149

UBXN7 (UniProt H7BYF4)
inactive: [5] -0.047 | volasertib 0.004

UBA52 (UniProt P62987)
inactive: [5] -0.021 | barasertib 0 | [1] 0.055 | volasertib 0.016 | [3] 0.02 | [4] -0.032 | sotrastaurin -0.043

UBE2O (UniProt K7ES11)
inactive: [5] 0.171 | volasertib -0.012 | [3] 0.676 | [4] -0.44

TUSC2 (UniProt O75896)
inactive: [5] 0.1 | barasertib -0.163 | [1] -0.275 | volasertib 0.007 | [2] -0.046 | [3] -0.036 | [4] 0.061 | saracatinib 0.002

Taken from the entries so far (9 entries):
TUFT1 (UniProt Q9NNX1)
inactive: barasertib -0.102 | [1] 0.284 | [2] 0.023 | [3] -0.018 | [4] 0.117

UBA2 (UniProt K7ESK7)
inactive: [5] -0.041 | volasertib 0.046

TUBA4A (UniProt C9JQ00)
inactive: barasertib 0.267 | [3] 0 | [4] -0.045

U2SURP isoform 2 (UniProt O15042)
inactive: vemurafenib -0.085 | [1] 0.155 | saracatinib 0.018

UBOX5 (UniProt O94941)
inactive: [2] -0.063 | [3] 0.06 | [4] 0.074 | saracatinib 0.085

TUBA8 (UniProt Q9NY65)
inactive: barasertib -0.051 | [1] -0.051 | [3] -0.359 | [4] 0.132 | saracatinib 0.149

UBXN7 (UniProt H7BYF4)
inactive: [5] -0.047 | volasertib 0.004

UBA52 (UniProt P62987)
inactive: [5] -0.021 | barasertib 0 | [1] 0.055 | volasertib 0.016 | [3] 0.02 | [4] -0.032 | sotrastaurin -0.043

UBE2O (UniProt K7ES11)
inactive: [5] 0.171 | volasertib -0.012 | [3] 0.676 | [4] -0.44

The list goes on.

TXNDC11 (UniProt Q6PKC3)
inactive: [5] 0.023 | barasertib 0.042 | [1] -0.044 | volasertib -0.061 | [2] -0.059 | [3] -0.102 | [4] -0.02 | saracatinib 0.054 | sotrastaurin -0.011

TXNRD3 (UniProt Q86VQ6)
inactive: [5] 0.163 | barasertib 0.279 | [1] 0.087 | volasertib -0.217 | [3] -0.013 | [4] -0.045

UBAP2, A0A0D9SFI5
inactive: sotrastaurin 0.007

UCHL1 (UniProt P09936)
inactive: [1] -0.654

UBA2 (UniProt U3KQ93)
inactive: [1] 0.229 | sotrastaurin -0.045

TXNRD2 isoform 3 (UniProt Q9NNW7)
inactive: [2] -0.081

TYW5 (UniProt A2RUC4)
inactive: [5] -0.053 | barasertib -0.157 | [1] -0.056 | volasertib -0.092 | [3] 0.042 | [4] -0.017 | sotrastaurin -0.005

TUBB2B (UniProt Q9BVA1)
inactive: [5] -0.1 | barasertib -0.089 | [1] 0.1 | volasertib -0.018 | [3] 0.019 | [4] -0.014 | saracatinib 0.051

UBAP2L isoform 1 (UniProt Q14157)
inactive: barasertib 0.001 | [2] 0.207 | sotrastaurin -0.105

UBE2L5, A0A1B0GUS4
inactive: [5] 0.116 | volasertib -0.114 | [2] -0.119 | [3] 0.031 | [4] 0.166

UBXN8 (UniProt O00124)
inactive: [1] 0.012 | [2] 0.005 | [3] 0 | [4] 0.171 | saracatinib 0.109 | sotrastaurin 0.013

TWNK (UniProt Q96RR1)
inactive: vemurafenib 0.014 | barasertib 0 | [1] 0.252 | [2] -0.481 | [3] 0.372 | [4] -0.484 | saracatinib 0.003 | sotrastaurin -0.043

TXNDC2 (UniProt Q86VQ3)
inactive: [5] 0.035 | barasertib -0.014 | volasertib -0.067 | [2] 0.032 | [3] -0.035 | [4] 0.085 | sotrastaurin 0.027

TXNIP (UniProt Q9H3M7)
inactive: vemurafenib 0.008 | barasertib -0.005 | [1] -0.006 | [2] 0.016 | [3] 0.209 | [4] -0.11 | saracatinib -0.07 | sotrastaurin 0.016

UBN2 (UniProt Q6ZU65)
inactive: vemurafenib 0.035 | [1] 0.004 | [2] 0.116 | saracatinib -0.071 | sotrastaurin 0.074

U2AF1L5 (UniProt P0DN76)
active: [3] -1.21
inactive: [5] -0.013 | [1] 0.027 | volasertib -0.036 | [2] 0.015 | [4] 0.389 | saracatinib -0.007

UBE2M (UniProt M0QX69)
inactive: [3] -0.346 | [4] 0.409

TVP23C (UniProt Q96ET8)
inactive: [3] -0.054 | [4] 0.215 | sotrastaurin 0.034

UBE2J2 (UniProt Q8N2K1)
inactive: vemurafenib 0.17 | barasertib 0.027 | [1] -0.211 | [2] -0.16 | [3] 0.012 | [4] 0.12 | saracatinib -0.068 | sotrastaurin 0.056

UBA7 (UniProt P41226)
inactive: [3] 0.107 | [4] -0.018 | sotrastaurin 0

TYRO3 (UniProt Q06418)
inactive: vemurafenib 0.085 | barasertib 0.007 | [1] 0.07 | [2] -0.057 | [3] -0.029 | [4] -0.003 | sotrastaurin 0

TXNDC9 isoform 2 (UniProt O14530)
inactive: saracatinib 0.002

TYK2 (UniProt P29597)
inactive: [1] 0.111 | sotrastaurin 0.039
